Measurements as given in patent publication US20070265350A1.
These are yes or no findings as the source states them, for the method shown. Some binding calls cover weakened binding; strength is not graded here.

Protein sequences, listed by entry. Tags and fused reporters are not part of them. Residues count along the entry.
UniProt P00442, residues 2-152: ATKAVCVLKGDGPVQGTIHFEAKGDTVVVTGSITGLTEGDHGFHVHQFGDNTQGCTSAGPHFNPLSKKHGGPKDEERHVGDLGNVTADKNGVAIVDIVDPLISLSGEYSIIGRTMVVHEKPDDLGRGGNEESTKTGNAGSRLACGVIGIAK

Molecular target: Bovine copper/zinc superoxide dismutase (SOD1), native (bovine) (UniProt P00442)
Assay: GTPase immobilized on magnetic beads, loaded or not with guanine nucleotide, bound to SOD1, immunoblot for SOD1 (FIG. 12B)

binding: binds
Substance: RhoA (from UniProt P24406 1-193) (enzyme)
